# Reference: paper PMC7862700
# This is one part of the list. Construct or isoform of the protein are uncertain.
# Target: T1, ELF2 (UniProt Q15723)
# T1 sequence: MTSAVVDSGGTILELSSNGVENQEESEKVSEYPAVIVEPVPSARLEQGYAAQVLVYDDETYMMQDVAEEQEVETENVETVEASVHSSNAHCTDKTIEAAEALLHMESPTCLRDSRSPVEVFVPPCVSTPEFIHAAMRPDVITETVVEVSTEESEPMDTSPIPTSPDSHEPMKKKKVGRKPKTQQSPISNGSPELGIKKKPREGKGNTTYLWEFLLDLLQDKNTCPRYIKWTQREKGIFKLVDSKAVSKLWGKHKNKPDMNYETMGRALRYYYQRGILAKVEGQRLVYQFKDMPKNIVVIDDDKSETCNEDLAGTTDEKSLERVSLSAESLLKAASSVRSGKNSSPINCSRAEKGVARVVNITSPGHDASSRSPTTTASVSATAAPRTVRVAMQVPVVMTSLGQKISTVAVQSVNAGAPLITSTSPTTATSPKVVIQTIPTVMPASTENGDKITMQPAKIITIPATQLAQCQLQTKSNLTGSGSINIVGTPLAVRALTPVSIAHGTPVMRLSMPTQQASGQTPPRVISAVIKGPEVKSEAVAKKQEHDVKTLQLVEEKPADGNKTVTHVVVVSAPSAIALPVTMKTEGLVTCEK
# Test: DAPPL (digital affinity profiling via proximity ligation, sequencing)
# Conditions: 10 mM Tris-HCl pH 7.5, 50 mM NaCl, 1 mM DTT, 4% glycerol, room temperature, 30 min; GST-TFs on glutathione beads, 16-mer random dsDNA library, 0.1% …; high values mean tight binding; double strand, one strand shown; scale: fold enrichment (6-mer frequency, TF over GST control)
row,Sequence,binding signal
1,ATGGCC,1.28
2,ATTTCC,5.82
3,TACGCC,1.15
4,TGCAAA,1.03
5,CCATAT,1.28
6,CGCCTT,1.42
7,TAAGGT,1
8,GAACCA,1.04
9,CCACGC,1.13
10,TTAAAG,1.09
11,ATATGC,1.11
12,ATCCTG,1.48
13,TTCTCG,1.32
14,TTCAAA,1.23
15,GAAGCT,1.79
16,TCTAAT,1.11
17,ATTTGA,1.16
18,ACATCT,1.25
19,GCCTAT,1.24
20,ATCTGA,1.04

# As a working copy, some entries already given:
row,Sequence,binding signal
16,TCTAAT,1.11
17,ATTTGA,1.16
18,ACATCT,1.25

# (cont.)

row,Sequence,binding signal
1,CCTGTT,1.89
2,TAACCT,1.22
3,AAGCGA,1.05
4,TCGACA,1.23
5,ATCAAT,1.07
6,TAATAG,1.18
7,GATCCT,1.25
8,ACTGCT,1.33
9,TGCTCA,1.26
10,CCCACG,1.11
11,AGTATC,1.22
12,TCAACC,1.14
13,CGCTAG,0.987
14,ATAGAA,1.09
15,ATGATA,1.22
16,AACTTA,1.18
17,CCGACC,1.48
18,TACCGA,1.07
19,GGCTCT,1.28
